# Laboratory results: PubChem BioAssay AID504808 (Drosophila RNAi Screening Center, 2011)
# Screen: 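Fly genes required to hold E2F transcription in check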 (primary screen)
# Cell system: Drosophila S2 cells
# Reagents: long dsRNA against Drosophila genes
# Measured: 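Firefly luciferase driven by E2F sites, normalised to Renilla luciferase on the same minimal promoter, measured by plate reader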
# Reading the numbers: E2F firefly: higher = more E2F reporter activity; Renilla normaliser: higher = more normaliser reporter signal
# Rule for the call: 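Called active if the normalised E2F reporter went up by over 50%; the cutoff is arbitrary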
# The screen tested about 21,000 reagents; shown is an unselected part of those that have a named target and a result. Over the whole deposit, 18 (0.084%) were called active. 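Raw counts without plate normalisation, one of two replicates; the ratio scores behind the calls were not deposited.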 No sequences are given here. Not stated in the record: the amount of reagent, the time to read-out.
gene,amplicon,"E2F firefly, rep 1","Renilla normaliser, rep 1",call
CG5139,DRSC00681,1.72e5,6145,inactive
Gr94a (Gustatory receptor 94a),DRSC13597,84664,2407,inactive
CG32727,DRSC17519,77597,2636,inactive
CG33234,DRSC07994,1.29e5,4691,inactive
CG5003,DRSC15694,1682,940,inactive
CG34054,DRSC05277,1.25e5,5470,inactive
s-cup (stanley-cup),DRSC06277,85788,4295,inactive
s-cup (stanley-cup),DRSC06278,99384,3980,inactive
ttm2 (tiny tim 2),DRSC08268,1.01e5,4442,inactive
qm (quemao),DRSC11386,95382,3598,inactive
CG3335,DRSC10358,76311,5758,inactive
Khc-73 (Kinesin heavy chain 73),DRSC07449,75600,3280,inactive
Cpes (Ceramide phosphoethanolamine synthase),DRSC04475,65909,3552,inactive
CG6287,DRSC02947,84717,3823,inactive
orb2,DRSC10540,53996,2929,inactive
orb2,DRSC10541,95983,3858,inactive
orb2,DRSC10542,74175,3449,inactive
CG10283,DRSC02034,73789,3660,inactive
CG3610,DRSC15502,1.18e5,5986,inactive
ohgt (ohgata),DRSC15521,1.45e5,6715,inactive
l(1)G0469 (lethal (1) G0469),DRSC19412,7203,712,inactive
l(1)G0469 (lethal (1) G0469),DRSC19462,1.49e5,6319,inactive
CG10013,DRSC14175,67327,3214,inactive
ppk15 (pickpocket 15),DRSC14733,80566,6017,inactive
CHMP2B (Charged multivesicular body protein 2b),DRSC10436,68635,3868,inactive
CG7564,DRSC10880,1.36e5,6790,inactive
cv-d (crossveinless d),DRSC16522,70325,3498,inactive
cv-d (crossveinless d),DRSC16524,1.07e5,5391,inactive
cv-d (crossveinless d),DRSC16526,1.18e5,6721,inactive
Pat1 (Protein interacting with APP tail-1),DRSC17750,8538,804,inactive
me31B (maternal expression at 31B),DRSC03569,68678,3585,inactive
CG30377,DRSC06477,3054,213,inactive
CG30377,DRSC06799,1.28e5,4690,inactive
Mayo,DRSC14300,1.24e5,6081,inactive
Pos (Poseidon),DRSC15415,1.39e5,6775,inactive
CG3500,DRSC04379,1.11e5,5183,inactive
CG5011,DRSC00039,1.52e5,5520,inactive
CG5011,DRSC00674,81394,3682,inactive
CG15312,DRSC18000,7998,676,inactive
CG4073,DRSC15542,1.45e5,7033,inactive
shu (shutdown),DRSC04484,77442,3166,inactive
CG11449,DRSC11662,1.54e5,7744,inactive
dgt6 (dim gamma-tubulin 6),DRSC14424,1896,988,inactive
CG17005,DRSC02556,1.56e5,5130,inactive
CG17786,DRSC15270,1.23e5,6286,inactive
Scgdelta (Sarcoglycan delta),DRSC18544,1.11e5,5827,inactive
lncRNA:CR32661 (long non-coding RNA:CR32661),DRSC19794,1.51e5,6726,inactive
CG11892,DRSC14428,1824,1004,inactive
CG30467,DRSC07097,89562,4099,inactive
muc (midline uncoordinated),DRSC02832,1.55e5,4979,inactive
CG11905,DRSC09863,88072,3892,inactive
CG11755,DRSC14374,1.39e5,7073,inactive
DIP-gamma (Dpr-interacting protein gamma),DRSC14873,1983,1048,inactive
RpL24-like (Ribosomal protein L24-like),DRSC16111,1.16e5,7422,inactive
tx (retired record),DRSC16931,1663,788,inactive
CG15071,DRSC06504,1.43e5,4788,inactive
CG14605,DRSC12549,1.31e5,6508,inactive

5 neighbouring reagents already listed, quoted:
gene,amplicon,"E2F firefly, rep 1","Renilla normaliser, rep 1",call
l(1)G0469 (lethal (1) G0469),DRSC19412,7203,712,inactive
l(1)G0469 (lethal (1) G0469),DRSC19462,1.49e5,6319,inactive
CG10013,DRSC14175,67327,3214,inactive
ppk15 (pickpocket 15),DRSC14733,80566,6017,inactive
CHMP2B (Charged multivesicular body protein 2b),DRSC10436,68635,3868,inactive
